PubChem BioAssay AID686938 – Drosophila RNAi Screening Center – 2013
In all, the deposit lists about 23,000 reagents; below is an unselected part of those that have a named target and a result. In the full data, 75 (0.33%) are marked active. 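Raw plate signals without normalisation; calls rest on plate z-scores that were not deposited; ratio present for only 364 wells.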 A number with no mark means an inactive call. Reagents against one gene are numbered here. Not stated in the record: the dose of the treatment.

Test: 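Knock-downs reducing store-operated calcium influx in Drosophila cells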 (primary screen)
Cells: Drosophila S2R+ cells
Reagents: long dsRNA against Drosophila genes, about 0.25 µg dsRNA per well, roughly 10,000 cells
Duration: 5 days of knock-down before the calcium assay
Conditions: thapsigargin (SERCA pump blocker) to empty calcium stores; entry signal taken 4 min after adding it
Measurement: 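Duplicate raw fluo-4 intensities per well from a plate reader, at rest and four minutes after thapsigargin emptied calcium stores; entry-to-rest ratio filled for only some wells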
Scale: calcium entry signal: higher = stronger calcium signal after store depletion; resting calcium signal: higher = higher resting calcium signal
Units: calcium entry signal in fluorescence units; resting calcium signal in fluorescence units
Active means: 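Called when the plate z-score of the entry-to-rest ratio, mean of duplicates, falls below −3; wells with low overall dye signal (Fmax z below −2) or more than five off-targets excluded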
Calls: active = strongly reduced calcium entry; inactive = no strong reduction

Vha100-3 (Vacuolar H[+] ATPase 100kD subunit 3) — calcium entry signal, replicate 1: 3.54e7; calcium entry signal, replicate 2: 4.37e7; resting calcium signal, replicate 1: 1.68e7; resting calcium signal, replicate 2: 2.12e7
Usp14 (Ubiquitin specific protease 14) — calcium entry signal, replicate 1: 5.51e7; resting calcium signal, replicate 1: 2.71e7
ari-2 (ariadne 2) — calcium entry signal, replicate 1: 3.13e7; calcium entry signal, replicate 2: 5.57e7; resting calcium signal, replicate 1: 1.58e7; resting calcium signal, replicate 2: 2.37e7
CG13962 — calcium entry signal, replicate 1: 3.06e7; calcium entry signal, replicate 2: 4.51e7; resting calcium signal, replicate 1: 1.57e7; resting calcium signal, replicate 2: 1.85e7
CG42814 — calcium entry signal, replicate 1: 4.04e7; calcium entry signal, replicate 2: 6.22e7; resting calcium signal, replicate 1: 2.09e7; resting calcium signal, replicate 2: 2.48e7
EDTP (Egg-derived tyrosine phosphatase) — calcium entry signal, replicate 1: 4.07e7; calcium entry signal, replicate 2: 4.77e7; resting calcium signal, replicate 1: 1.75e7; resting calcium signal, replicate 2: 2.09e7
CG7365 — calcium entry signal, replicate 1: 2.67e7; calcium entry signal, replicate 2: 4.18e7; resting calcium signal, replicate 1: 1.26e7; resting calcium signal, replicate 2: 2.79e7
lva (lava lamp) — calcium entry signal, replicate 1: 5.31e7; calcium entry signal, replicate 2: 4.83e7; resting calcium signal, replicate 1: 2.25e7; resting calcium signal, replicate 2: 2.17e7
CG32486 #1 — calcium entry signal, replicate 1: 3.87e7; calcium entry signal, replicate 2: 2.62e7; resting calcium signal, replicate 1: 2.55e7; resting calcium signal, replicate 2: 1.13e7
CG32486 #2 — calcium entry signal, replicate 1: 3.87e7; calcium entry signal, replicate 2: 4.13e7; resting calcium signal, replicate 1: 1.97e7; resting calcium signal, replicate 2: 1.78e7
ND-13A (NADH dehydrogenase (ubiquinone) 13 kDa A subunit) — calcium entry signal, replicate 1: 4.27e7; calcium entry signal, replicate 2: 4.14e7; resting calcium signal, replicate 1: 1.88e7; resting calcium signal, replicate 2: 1.81e7
Ctns (Cystinosin) — calcium entry signal, replicate 1: 5.03e7; calcium entry signal, replicate 2: 5.25e7; resting calcium signal, replicate 1: 2.55e7; resting calcium signal, replicate 2: 2.36e7

Look-ups from the list.
Vha100-3 (Vacuolar H[+] ATPase 100kD subunit 3), resting calcium signal, replicate 1 = 1.68e7
Value of CG32486 #1 in “resting calcium signal, replicate 1”: 2.55e7
